The target of assay [1] is T1, 3xFLAG-tagged Nup54 (Drosophila melanogaster) (UniProt Q9V6B9).
T1 sequence: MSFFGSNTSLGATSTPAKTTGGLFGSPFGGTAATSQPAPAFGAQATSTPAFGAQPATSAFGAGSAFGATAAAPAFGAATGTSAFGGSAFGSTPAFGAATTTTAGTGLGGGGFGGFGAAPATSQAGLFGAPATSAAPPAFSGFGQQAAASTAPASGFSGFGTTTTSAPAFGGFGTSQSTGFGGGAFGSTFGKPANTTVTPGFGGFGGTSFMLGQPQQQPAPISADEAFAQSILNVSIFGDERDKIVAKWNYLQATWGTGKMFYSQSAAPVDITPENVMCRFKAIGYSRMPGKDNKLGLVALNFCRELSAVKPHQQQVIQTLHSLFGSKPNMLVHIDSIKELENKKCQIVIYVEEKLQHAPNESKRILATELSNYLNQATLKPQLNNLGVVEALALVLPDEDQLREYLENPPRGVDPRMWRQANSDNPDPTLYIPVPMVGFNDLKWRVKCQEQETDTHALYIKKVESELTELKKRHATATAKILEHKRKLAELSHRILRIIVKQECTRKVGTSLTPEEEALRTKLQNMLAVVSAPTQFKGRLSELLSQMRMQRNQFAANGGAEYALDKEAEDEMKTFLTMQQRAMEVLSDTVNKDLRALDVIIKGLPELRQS
Description: co-IP; S2 cells transfected with 3xFLAG- and HA-tagged constructs, lysed after 48 hr in Pierce IP lysis buffer; anti-FLAG M2 magnetic beads overnight at 4°C, washes 3 x 15 min in TBS; western blot. On the technique in general: A western blot detects proteins with antibodies after separation by electrophoresis.

Protein sequences, listed by entry. Tags and fused reporters are not part of them.
UniProt Q9U1H9: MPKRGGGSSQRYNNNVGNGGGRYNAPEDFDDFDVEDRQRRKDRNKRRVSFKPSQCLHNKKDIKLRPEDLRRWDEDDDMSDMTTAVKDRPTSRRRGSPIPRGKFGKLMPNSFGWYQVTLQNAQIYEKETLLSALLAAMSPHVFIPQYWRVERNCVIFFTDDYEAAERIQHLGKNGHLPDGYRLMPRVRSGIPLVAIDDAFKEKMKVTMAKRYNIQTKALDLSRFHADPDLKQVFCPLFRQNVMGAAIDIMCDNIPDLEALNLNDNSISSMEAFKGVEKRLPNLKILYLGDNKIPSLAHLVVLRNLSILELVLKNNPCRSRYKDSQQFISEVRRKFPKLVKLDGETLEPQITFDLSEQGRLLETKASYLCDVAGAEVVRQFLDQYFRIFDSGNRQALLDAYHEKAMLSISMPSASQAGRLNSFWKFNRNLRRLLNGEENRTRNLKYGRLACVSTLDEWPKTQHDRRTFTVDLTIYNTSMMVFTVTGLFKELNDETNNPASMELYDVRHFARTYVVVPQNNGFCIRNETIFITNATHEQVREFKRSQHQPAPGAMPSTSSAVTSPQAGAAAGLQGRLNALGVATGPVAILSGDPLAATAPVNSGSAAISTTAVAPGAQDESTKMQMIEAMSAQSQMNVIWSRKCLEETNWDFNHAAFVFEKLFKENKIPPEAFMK

Assay [2] deals with T2, 3xFLAG-tagged Nup58 (Drosophila melanogaster) (UniProt Q9VDV3).
T2 sequence: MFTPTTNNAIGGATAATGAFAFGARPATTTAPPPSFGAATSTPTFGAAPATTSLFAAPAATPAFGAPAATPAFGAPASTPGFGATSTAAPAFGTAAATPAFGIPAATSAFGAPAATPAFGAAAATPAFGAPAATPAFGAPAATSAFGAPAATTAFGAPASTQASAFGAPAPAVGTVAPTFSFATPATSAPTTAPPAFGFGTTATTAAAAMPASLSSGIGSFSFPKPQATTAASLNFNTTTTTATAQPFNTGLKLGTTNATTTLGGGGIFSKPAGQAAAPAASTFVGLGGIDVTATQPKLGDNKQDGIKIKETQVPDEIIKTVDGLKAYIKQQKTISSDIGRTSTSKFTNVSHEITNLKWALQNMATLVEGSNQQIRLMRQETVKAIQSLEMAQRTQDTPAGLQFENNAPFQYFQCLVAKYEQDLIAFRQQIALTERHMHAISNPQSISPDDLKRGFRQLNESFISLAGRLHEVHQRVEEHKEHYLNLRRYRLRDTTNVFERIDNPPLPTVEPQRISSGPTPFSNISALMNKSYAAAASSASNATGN
The assay is described as above.

No constants are given. Whether binding was seen depends on the method and setting. In cells and extracts the contact can be indirect. Some binding calls cover weakened binding; strength is not graded here. Tags and fused reporters may be left off the sequences shown.

Regarding “HA-tagged Nxf1 (from UniProt Q9U1H9 1-672)”, the binding entry in assay [1] and in assay [2] was “binds” in each case.

B1: HA-tagged FL Nup54 (protein, UniProt Q9V6B9 1-610)
chain: MSFFGSNTSLGATSTPAKTTGGLFGSPFGGTAATSQPAPAFGAQATSTPAFGAQPATSAFGAGSAFGATAAAPAFGAATGTSAFGGSAFGSTPAFGAATTTTAGTGLGGGGFGGFGAAPATSQAGLFGAPATSAAPPAFSGFGQQAAASTAPASGFSGFGTTTTSAPAFGGFGTSQSTGFGGGAFGSTFGKPANTTVTPGFGGFGGTSFMLGQPQQQPAPISADEAFAQSILNVSIFGDERDKIVAKWNYLQATWGTGKMFYSQSAAPVDITPENVMCRFKAIGYSRMPGKDNKLGLVALNFCRELSAVKPHQQQVIQTLHSLFGSKPNMLVHIDSIKELENKKCQIVIYVEEKLQHAPNESKRILATELSNYLNQATLKPQLNNLGVVEALALVLPDEDQLREYLENPPRGVDPRMWRQANSDNPDPTLYIPVPMVGFNDLKWRVKCQEQETDTHALYIKKVESELTELKKRHATATAKILEHKRKLAELSHRILRIIVKQECTRKVGTSLTPEEEALRTKLQNMLAVVSAPTQFKGRLSELLSQMRMQRNQFAANGGAEYALDKEAEDEMKTFLTMQQRAMEVLSDTVNKDLRALDVIIKGLPELRQS
Take B1: the binding result in assay [2] is “binds”.

B2: HA-tagged FL Nup58 (protein, UniProt Q9VDV3 1-546)
chain: MFTPTTNNAIGGATAATGAFAFGARPATTTAPPPSFGAATSTPTFGAAPATTSLFAAPAATPAFGAPAATPAFGAPASTPGFGATSTAAPAFGTAAATPAFGIPAATSAFGAPAATPAFGAAAATPAFGAPAATPAFGAPAATSAFGAPAATTAFGAPASTQASAFGAPAPAVGTVAPTFSFATPATSAPTTAPPAFGFGTTATTAAAAMPASLSSGIGSFSFPKPQATTAASLNFNTTTTTATAQPFNTGLKLGTTNATTTLGGGGIFSKPAGQAAAPAASTFVGLGGIDVTATQPKLGDNKQDGIKIKETQVPDEIIKTVDGLKAYIKQQKTISSDIGRTSTSKFTNVSHEITNLKWALQNMATLVEGSNQQIRLMRQETVKAIQSLEMAQRTQDTPAGLQFENNAPFQYFQCLVAKYEQDLIAFRQQIALTERHMHAISNPQSISPDDLKRGFRQLNESFISLAGRLHEVHQRVEEHKEHYLNLRRYRLRDTTNVFERIDNPPLPTVEPQRISSGPTPFSNISALMNKSYAAAASSASNATGN
Regarding B2, the binding result in assay [1] is on record as “binds”.

The record behind these values is PMC8133776.
